{"sequences": {"note": "Chains of the proteins cited; added tags and fusions are not shown. Lines headed by an entry give the natural chain unless they say otherwise; changes in a name come on top.", "UniProt P97770": "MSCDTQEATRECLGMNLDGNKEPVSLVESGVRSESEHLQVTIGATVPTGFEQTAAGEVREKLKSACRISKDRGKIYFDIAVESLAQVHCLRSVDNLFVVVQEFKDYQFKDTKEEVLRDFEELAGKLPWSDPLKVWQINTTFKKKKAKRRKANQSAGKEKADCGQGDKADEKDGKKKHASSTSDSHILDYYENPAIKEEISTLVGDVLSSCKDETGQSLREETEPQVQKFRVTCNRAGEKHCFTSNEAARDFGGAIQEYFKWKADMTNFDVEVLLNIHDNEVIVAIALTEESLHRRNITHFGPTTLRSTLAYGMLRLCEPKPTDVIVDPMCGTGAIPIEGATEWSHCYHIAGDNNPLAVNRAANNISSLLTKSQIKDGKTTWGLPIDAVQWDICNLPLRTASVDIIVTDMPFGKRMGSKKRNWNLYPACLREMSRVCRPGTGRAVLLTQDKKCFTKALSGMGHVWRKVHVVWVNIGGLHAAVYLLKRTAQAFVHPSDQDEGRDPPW", "UniProt P70280, whole entry": "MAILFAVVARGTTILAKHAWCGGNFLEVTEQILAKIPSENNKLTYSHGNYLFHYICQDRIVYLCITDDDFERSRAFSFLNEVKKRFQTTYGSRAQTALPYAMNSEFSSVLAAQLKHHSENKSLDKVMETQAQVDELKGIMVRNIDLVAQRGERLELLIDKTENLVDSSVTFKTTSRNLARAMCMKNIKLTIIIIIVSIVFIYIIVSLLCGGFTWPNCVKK", "UniProt Q01338, whole entry": "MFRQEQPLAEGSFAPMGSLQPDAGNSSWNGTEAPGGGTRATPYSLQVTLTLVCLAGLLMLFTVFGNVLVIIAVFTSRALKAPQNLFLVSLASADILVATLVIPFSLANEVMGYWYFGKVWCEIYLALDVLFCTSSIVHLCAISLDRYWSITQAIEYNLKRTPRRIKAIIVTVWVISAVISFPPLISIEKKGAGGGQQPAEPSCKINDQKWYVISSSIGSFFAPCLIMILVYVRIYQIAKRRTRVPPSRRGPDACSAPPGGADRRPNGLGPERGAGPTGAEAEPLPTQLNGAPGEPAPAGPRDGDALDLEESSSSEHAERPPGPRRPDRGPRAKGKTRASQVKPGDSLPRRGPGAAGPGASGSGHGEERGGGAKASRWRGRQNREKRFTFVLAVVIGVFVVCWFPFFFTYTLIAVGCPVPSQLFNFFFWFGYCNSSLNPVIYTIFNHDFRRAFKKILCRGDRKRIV", "UniProt P70403": "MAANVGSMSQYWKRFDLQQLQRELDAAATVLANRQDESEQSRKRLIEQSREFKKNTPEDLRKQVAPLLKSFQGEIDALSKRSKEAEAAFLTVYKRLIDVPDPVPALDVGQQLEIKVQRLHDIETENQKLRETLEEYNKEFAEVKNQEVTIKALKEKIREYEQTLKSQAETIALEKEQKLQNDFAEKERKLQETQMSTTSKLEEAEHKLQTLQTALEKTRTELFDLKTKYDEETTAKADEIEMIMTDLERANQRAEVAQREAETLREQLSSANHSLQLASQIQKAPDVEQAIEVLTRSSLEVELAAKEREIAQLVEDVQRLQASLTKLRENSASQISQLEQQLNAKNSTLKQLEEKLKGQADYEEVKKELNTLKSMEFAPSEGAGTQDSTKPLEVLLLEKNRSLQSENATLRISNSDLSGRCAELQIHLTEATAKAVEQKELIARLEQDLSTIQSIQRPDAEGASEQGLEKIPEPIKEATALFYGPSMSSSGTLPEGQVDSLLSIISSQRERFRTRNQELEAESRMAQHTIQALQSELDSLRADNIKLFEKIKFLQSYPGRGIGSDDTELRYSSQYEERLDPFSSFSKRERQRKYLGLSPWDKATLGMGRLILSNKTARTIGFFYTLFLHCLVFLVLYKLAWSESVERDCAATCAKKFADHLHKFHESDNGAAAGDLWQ", "UniProt P70459": "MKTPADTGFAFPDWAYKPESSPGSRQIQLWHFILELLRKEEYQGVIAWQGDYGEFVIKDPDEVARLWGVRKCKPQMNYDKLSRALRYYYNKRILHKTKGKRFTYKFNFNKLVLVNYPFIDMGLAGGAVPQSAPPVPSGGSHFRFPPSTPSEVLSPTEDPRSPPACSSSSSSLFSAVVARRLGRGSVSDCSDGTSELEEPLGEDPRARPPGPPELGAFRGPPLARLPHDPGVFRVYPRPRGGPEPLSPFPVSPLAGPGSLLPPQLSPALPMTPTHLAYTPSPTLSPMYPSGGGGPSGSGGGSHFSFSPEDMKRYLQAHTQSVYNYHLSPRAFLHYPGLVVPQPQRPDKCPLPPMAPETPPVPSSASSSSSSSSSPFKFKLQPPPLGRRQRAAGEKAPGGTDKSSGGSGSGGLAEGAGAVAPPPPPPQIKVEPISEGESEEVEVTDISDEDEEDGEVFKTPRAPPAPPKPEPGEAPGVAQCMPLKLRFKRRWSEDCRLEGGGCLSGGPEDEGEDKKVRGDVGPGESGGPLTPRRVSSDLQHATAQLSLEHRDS", "UniProt P97290": "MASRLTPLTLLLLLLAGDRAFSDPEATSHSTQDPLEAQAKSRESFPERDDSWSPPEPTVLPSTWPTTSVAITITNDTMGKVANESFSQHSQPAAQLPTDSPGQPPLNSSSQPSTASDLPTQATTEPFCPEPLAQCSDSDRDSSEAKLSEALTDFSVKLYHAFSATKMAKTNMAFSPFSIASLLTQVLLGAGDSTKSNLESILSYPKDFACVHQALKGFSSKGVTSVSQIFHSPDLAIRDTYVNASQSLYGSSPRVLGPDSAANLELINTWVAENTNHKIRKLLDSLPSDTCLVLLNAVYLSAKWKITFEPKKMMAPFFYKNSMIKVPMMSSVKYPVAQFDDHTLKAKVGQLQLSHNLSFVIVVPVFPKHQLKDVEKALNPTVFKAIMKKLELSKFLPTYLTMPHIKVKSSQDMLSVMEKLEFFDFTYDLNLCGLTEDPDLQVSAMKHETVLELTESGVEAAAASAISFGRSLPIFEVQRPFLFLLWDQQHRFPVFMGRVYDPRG", "UniProt Q02248, whole entry": "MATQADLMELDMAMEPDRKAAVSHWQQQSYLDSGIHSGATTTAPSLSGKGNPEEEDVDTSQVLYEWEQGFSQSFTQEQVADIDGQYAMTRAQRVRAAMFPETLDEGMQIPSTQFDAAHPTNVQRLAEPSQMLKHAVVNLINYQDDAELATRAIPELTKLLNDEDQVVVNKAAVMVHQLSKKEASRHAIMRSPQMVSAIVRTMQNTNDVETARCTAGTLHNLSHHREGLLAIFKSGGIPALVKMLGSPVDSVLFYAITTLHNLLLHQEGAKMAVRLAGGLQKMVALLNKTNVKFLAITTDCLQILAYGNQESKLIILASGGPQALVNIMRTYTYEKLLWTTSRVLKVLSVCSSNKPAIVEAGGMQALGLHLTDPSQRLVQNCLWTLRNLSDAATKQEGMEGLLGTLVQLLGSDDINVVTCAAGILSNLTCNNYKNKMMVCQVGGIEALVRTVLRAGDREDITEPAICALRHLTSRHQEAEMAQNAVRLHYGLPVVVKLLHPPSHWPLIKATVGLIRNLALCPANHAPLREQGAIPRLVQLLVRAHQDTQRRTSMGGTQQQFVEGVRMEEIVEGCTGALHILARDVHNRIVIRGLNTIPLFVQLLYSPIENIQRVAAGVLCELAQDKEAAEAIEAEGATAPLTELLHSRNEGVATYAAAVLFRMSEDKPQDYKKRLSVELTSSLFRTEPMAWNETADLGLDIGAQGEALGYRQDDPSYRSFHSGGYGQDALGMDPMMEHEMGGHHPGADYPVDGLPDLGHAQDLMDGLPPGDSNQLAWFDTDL", "UniProt Q01721": "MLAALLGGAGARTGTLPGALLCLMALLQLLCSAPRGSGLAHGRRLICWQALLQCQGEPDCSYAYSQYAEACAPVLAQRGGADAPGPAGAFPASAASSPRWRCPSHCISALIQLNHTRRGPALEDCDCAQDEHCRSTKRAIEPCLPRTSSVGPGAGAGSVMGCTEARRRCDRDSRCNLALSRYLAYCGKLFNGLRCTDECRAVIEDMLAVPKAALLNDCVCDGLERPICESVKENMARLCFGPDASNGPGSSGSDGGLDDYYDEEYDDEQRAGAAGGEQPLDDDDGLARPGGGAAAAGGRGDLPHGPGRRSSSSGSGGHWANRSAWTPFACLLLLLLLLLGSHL", "UniProt P97927": "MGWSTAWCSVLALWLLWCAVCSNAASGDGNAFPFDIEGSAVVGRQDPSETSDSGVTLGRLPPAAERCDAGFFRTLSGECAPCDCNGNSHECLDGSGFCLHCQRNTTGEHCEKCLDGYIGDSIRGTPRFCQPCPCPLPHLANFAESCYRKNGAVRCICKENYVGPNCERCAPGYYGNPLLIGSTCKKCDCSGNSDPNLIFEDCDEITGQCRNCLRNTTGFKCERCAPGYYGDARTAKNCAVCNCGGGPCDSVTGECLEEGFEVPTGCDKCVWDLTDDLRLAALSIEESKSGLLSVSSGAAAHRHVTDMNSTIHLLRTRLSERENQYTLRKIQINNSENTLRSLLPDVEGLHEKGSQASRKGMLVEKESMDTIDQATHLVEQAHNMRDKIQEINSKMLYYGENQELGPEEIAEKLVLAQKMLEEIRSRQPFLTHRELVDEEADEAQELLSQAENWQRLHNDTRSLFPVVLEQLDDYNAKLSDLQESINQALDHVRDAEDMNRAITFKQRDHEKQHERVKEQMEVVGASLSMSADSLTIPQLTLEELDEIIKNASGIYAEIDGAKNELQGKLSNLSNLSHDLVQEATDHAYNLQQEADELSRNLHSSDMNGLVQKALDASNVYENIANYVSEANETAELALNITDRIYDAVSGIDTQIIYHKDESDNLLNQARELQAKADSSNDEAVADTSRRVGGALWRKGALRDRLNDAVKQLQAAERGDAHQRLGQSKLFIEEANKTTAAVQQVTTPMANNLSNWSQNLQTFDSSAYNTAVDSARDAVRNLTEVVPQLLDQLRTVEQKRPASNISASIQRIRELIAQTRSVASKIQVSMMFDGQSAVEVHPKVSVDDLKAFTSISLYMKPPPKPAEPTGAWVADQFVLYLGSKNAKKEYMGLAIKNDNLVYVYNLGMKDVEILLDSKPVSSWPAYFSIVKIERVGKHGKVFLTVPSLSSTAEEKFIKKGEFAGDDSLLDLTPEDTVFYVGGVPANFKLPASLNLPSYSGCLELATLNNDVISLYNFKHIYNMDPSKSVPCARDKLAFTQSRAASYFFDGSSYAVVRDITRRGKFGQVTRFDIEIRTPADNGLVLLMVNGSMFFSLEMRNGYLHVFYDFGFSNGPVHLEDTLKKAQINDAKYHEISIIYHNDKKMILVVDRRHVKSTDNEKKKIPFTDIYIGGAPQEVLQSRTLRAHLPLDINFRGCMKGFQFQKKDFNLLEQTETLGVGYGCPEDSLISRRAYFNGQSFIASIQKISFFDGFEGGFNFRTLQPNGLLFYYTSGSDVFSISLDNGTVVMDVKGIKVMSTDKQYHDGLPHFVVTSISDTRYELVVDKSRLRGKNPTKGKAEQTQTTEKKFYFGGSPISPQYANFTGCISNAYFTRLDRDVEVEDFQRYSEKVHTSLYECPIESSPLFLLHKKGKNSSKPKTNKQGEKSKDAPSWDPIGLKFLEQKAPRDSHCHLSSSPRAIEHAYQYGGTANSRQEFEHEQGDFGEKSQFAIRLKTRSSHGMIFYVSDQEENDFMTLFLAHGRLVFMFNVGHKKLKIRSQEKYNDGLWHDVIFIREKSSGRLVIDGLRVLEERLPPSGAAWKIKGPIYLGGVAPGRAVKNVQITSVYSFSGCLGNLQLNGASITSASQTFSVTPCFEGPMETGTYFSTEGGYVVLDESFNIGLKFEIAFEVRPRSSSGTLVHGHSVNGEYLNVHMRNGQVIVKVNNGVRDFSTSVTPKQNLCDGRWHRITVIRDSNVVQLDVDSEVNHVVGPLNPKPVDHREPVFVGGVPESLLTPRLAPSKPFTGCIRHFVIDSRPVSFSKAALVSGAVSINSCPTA", "UniProt P70297": "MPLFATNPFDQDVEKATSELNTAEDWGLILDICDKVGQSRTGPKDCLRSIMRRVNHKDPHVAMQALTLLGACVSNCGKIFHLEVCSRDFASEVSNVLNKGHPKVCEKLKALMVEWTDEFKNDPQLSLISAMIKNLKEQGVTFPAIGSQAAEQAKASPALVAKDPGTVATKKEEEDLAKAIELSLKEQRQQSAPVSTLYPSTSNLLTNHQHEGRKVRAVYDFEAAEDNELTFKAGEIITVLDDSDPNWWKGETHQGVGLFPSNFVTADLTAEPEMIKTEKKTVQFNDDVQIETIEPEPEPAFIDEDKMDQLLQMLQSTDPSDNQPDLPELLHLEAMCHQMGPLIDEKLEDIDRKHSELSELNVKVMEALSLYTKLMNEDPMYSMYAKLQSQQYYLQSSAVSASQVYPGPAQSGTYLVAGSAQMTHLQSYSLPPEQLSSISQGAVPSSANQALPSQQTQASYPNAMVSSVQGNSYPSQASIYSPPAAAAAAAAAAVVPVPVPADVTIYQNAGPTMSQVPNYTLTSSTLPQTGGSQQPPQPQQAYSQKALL"}, "source": "the supplement of paper PMC12819154", "about": "“High-throughput peptide-centric local stability assay extends protein–ligand identification to membrane proteins, tissues and bacteria” (Nature Structural & Molecular Biology, 2025)", "note": "The list shows a part of the results. Most entries show no effect beyond the scatter of the controls."}
{"compound": "CN[C@@H]1C[C@H]2O[C@@](C)([C@@H]1OC)n1c3ccccc3c3c4c(c5c6ccccc6n2c5c31)C(=O)NC4 [staurosporine]", "assay": "log2 fold change of tryptic peptide abundance, ligand vs vehicle (limited proteolysis) (log2 ratio); higher = more trypsin-susceptible (destabilized)", "conditions": "ligand concentration: 20 uM; sample: mouse liver crude lysate; replicate design: treated separately"}
{"target": "UniProt P70670 (peptide sequence: NILFVITKPDVYK, peptide start residue: 2073)", "log2 fold change": -0.0842}
{"target": "UniProt P97770 (peptide sequence: STLAYGMLR, peptide start residue: 307)", "log2 fold change": -0.228}
{"target": "UniProt P80315 (peptide sequence: GIHPTIISESFQK, peptide start residue: 127)", "log2 fold change": -0.184}
{"target": "UniProt P70280 (peptide sequence: AFSFLNEVK, peptide start residue: 75)", "log2 fold change": -0.323}
{"target": "UniProt Q00558 (peptide sequence: AVGQPAAAAGHFQR, peptide start residue: 154)", "log2 fold change": -0.641}
{"target": "UniProt Q01338 (peptide sequence: GKTRASQVK, peptide start residue: 334)", "log2 fold change": 0.0153}
{"target": "UniProt P70188 (peptide sequence: AVDEDLENQTLRK, peptide start residue: 247)", "log2 fold change": -0.291}
{"target": "UniProt P97412 (peptide sequence: ISYPELTLK, peptide start residue: 1026)", "log2 fold change": 0.332}
{"target": "UniProt P70351 (peptide sequence: VVMVNGDHR, peptide start residue: 700)", "log2 fold change": 0.12}
{"target": "UniProt P83741 (peptide sequence: FQVSVTMDDAQKER, peptide start residue: 1855)", "log2 fold change": -0.355}
{"target": "UniProt P97376 (peptide sequence: DDIPEEDKGSVK, peptide start residue: 192)", "log2 fold change": 0.313}
{"target": "UniProt P70403 (peptide sequence: LDPFSSFSKR, peptide start residue: 579)", "log2 fold change": 0.332}
{"target": "UniProt P70459 (peptide sequence: ARPPGPPELGAFRGPPLAR, peptide start residue: 206)", "log2 fold change": -0.301}
{"target": "UniProt P80318 (peptide sequence: IDDIVSGHK, peptide start residue: 519)", "log2 fold change": -0.31}
{"target": "UniProt P70662 (peptide sequence: MVAPPAEPAR, peptide start residue: 281)", "log2 fold change": 0.00453}
{"target": "UniProt P97290 (peptide sequence: DFACVHQALK, peptide start residue: 207)", "log2 fold change": -0.543}
{"target": "UniProt Q00977 (peptide sequence: NEFKDIEEIKTQK, peptide start residue: 113)", "log2 fold change": -0.156}
{"target": "UniProt P97821 (peptide sequence: VNMNAAHLGGLQER, peptide start residue: 149)", "log2 fold change": 0.297}
{"target": "UniProt P97480 (peptide sequence: KADASSSQDSELER, peptide start residue: 228)", "log2 fold change": 0.306}
{"target": "UniProt P97714 (peptide sequence: LLKFSREK, peptide start residue: 331)", "log2 fold change": -0.0643}
{"target": "UniProt P70426 (peptide sequence: RTDDTPVVLVGNK, peptide start residue: 123)", "log2 fold change": 0.482}
{"target": "UniProt Q02248 (peptide sequence: CTAGTLHNLSHHR, peptide start residue: 213)", "log2 fold change": -0.569}
{"target": "UniProt Q01721 (peptide sequence: GDLPHGPGR, peptide start residue: 300)", "log2 fold change": -0.172}
{"target": "UniProt P97427 (peptide sequence: IFNLYPR, peptide start residue: 391)", "log2 fold change": -0.164}
{"target": "UniProt P97454 (peptide sequence: HNEFNPQHSLLVQFR, peptide start residue: 144)", "log2 fold change": 0.226}
{"target": "UniProt P97927 (peptide sequence: DSHCHLSSSPR, peptide start residue: 1447)", "log2 fold change": 0.699}
{"target": "UniProt P70315 (peptide sequence: GLPAPGPGPTDKK, peptide start residue: 216)", "log2 fold change": -0.576}
{"target": "UniProt P70297 (peptide sequence: DPGTVATKKEEEDLAK, peptide start residue: 163)", "log2 fold change": -0.0769}
{"target": "UniProt P97931 (peptide sequence: KGSVIDRK, peptide start residue: 254)", "log2 fold change": -0.14}
{"target": "UniProt P97798 (peptide sequence: GHESEDSMSTLAGRR, peptide start residue: 1248)", "log2 fold change": 0.268}
{"target": "UniProt P70210 (peptide sequence: AMNLDQVSK, peptide start residue: 111)", "log2 fold change": 0.241}
